Source: patent publication US5789414A, “Pharmaceutical compositions comprising tetrahydropyrimidine derivates” (Yeda Research and Development Co. Ltd., priority 1992, dated 1998)

System: Act D-d(ATGCAT) complex
Assay: 1H NMR binding of THPs to the Act D-d(ATGCAT) complex

Compound	downfield chemical shift of GH8 protons (addition of THP(B) to Act D-d(ATGCAT), 0.64 Act D per hexamer)	additional downfield shift of GH8 protons (THP(A) added after THP(B) to Act D-d(ATGCAT))
CC1=NCC[C@@H](C(=O)O)N1 [THP(B), 2-methyl-4-carboxy-3,4,5,6-tetrahydropyrimidine]	0.018 ppm	–
CC1=NCC(O)C(C(=O)O)N1 (centres unmarked) [THP(A), 2-methyl-4-carboxy-5-hydroxy-3,4,5,6-tetrahydropyrimidine]	–	0.22 ppm
